Assay [1] deals with T1, Fes1-GST (wild type) (yeast (S. cerevisiae)) (UniProt P38260).
T1 sequence: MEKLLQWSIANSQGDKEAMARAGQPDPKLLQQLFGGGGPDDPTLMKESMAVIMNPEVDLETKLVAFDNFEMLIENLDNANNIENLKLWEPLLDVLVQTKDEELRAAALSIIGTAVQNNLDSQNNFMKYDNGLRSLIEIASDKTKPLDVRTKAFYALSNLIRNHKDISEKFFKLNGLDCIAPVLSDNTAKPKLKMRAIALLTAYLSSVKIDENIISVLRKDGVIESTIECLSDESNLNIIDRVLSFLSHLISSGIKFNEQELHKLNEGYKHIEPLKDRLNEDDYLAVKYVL
Put plainly: pull-down; Fes1-GST fusions purified on GST-beads from lysates of fes1Δ yeast grown at 30°C with or without calcofluor white (60 min); eluted with 20 mM glutathione; western blot for Slt2.

Assay [2] has as its target T2, Fes1^A79R,R195A-GST (yeast (S. cerevisiae)) (UniProt P38260).
T2 sequence: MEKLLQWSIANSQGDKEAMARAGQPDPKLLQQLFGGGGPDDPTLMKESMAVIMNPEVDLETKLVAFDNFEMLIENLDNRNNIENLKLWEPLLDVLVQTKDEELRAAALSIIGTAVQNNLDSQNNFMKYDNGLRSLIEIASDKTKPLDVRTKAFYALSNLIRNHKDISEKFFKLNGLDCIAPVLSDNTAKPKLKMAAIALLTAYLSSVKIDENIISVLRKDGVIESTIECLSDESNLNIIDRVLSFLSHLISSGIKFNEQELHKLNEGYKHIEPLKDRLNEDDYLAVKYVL
Described as above.

Results are given in words; binding and its absence hold for the method and conditions named. In cells and extracts the contact can be indirect. Some results given as binding are weak or reduced against the parent protein; the word gives no strength. Where a sequence is shown, tags or fusion partners need not be part of it.

B1: Slt2 (enzyme, UniProt Q00772 1-484)
chain: MADKIERHTFKVFNQDFSVDKRFQLIKEIGHGAYGIVCSARFAEAAEDTTVAIKKVTNVFSKTLLCKRSLRELKLLRHFRGHKNITCLYDMDIVFYPDGSINGLYLYEELMECDMHQIIKSGQPLTDAHYQSFTYQILCGLKYIHSADVLHRDLKPGNLLVNADCQLKICDFGLARGYSENPVENSQFLTEYVATRWYRAPEIMLSYQGYTKAIDVWSAGCILAEFLGGKPIFKGKDYVNQLNQILQVLGTPPDETLRRIGSKNVQDYIHQLGFIPKVPFVNLYPNANSQALDLLEQMLAFDPQKRITVDEALEHPYLSIWHDPADEPVCSEKFEFSFESVNDMEDLKQMVIQEVQDFRLFVRQPLLEEQRQLQLQQQQQQQQQQQQQQQQPSDVDNGNAAASEENYPKQMATSNSVAPQQESFGIHSQNLPRHDADFPPRPQESMMEMRPATGNTADIPPQNDNGTLLDLEKELEFGLDRKYF
For the molecule B1, the binding result in assay [1] and in assay [2] was “binds” each time.

The values above are taken from paper PMC6615629, “Hsp70-nucleotide exchange factor (NEF) Fes1 has non-NEF roles in degradation of gluconeogenic enzymes and cell wall integrity” (PLoS Genetics, 2019).
